Patent US8314210B2, “Compositions and methods for the generation of MHC class II compounds by peptide exchange” (priority 2002, dated 2012)
For part of these data: Part of at least one peptide drawing is inferred or uncertain, most often the ends. For part of these data: At least one structure is not confirmed: it was looked up by name or label, or the drawing left a doubt. Peptide text beside a SMILES is read from it. * marks the point of attachment. Dnp = O=[N+]([O-])c1ccc(*)c([N+](=O)[O-])c1; Ahx = NCCCCCC(=O)O

What was measured:
[1] = target: T1, DRB1*0401 (Homo sapiens, UniProt P01903+P01911, A100K/A169T/F76Y/I96L/K127E/L162R/M171V/N62H/P40V/Q125Y/R42H/S133A/S149N/S66Y/V115G/V209L/W38E); type: binding; conditions: 3.3 μM *DR/CLIP, 50 μM DNP-labeled peptide, pH 5.2, overnight 30° C.
T1 construct: were attached to the 3′ end of the DRα and DRβ ectodomains; CLIP peptide […]; made in house

[2] = target: T2, HLA-DR4 (DRA, DRB1*0401) (Homo sapiens, UniProt P01903+P01911, A100K/A169T/F76Y/I96L/K127E/L162R/M171V/N62H/P40V/Q125Y/R42H/S133A/S149N/S66Y/V115G/V209L/W38E); type: binding; conditions: Table 2, DRB1*0401, read-out: (μM) [head prints unit only
T2 construct: were attached to the 3′ end of the DRα and DRβ ectodomains; CLIP peptide […]; made in house

Row | Compound | Loading Efficiency (%) [1] | IC50 [2]
1 | CC[C@H](C)[C@H](NC(=O)[C@H](CC(N)=O)NC(=O)[C@H](CCCCN)NC(=O)[C@H](Cc1ccccc1)NC(=O)[C@H](Cc1ccccc1)NC(=O)[C@H](Cc1c[nH]cn1)NC(=O)[C@@H](NC(=O)[C@@H](NC(=O)CCCCCNc1ccc([N+](=O)[O-])cc1[N+](=O)[O-])C(C)C)C(C)C)C(=O)N[C@H](C(=O)N[C@H](C(=O)N1CCC[C@H]1C(=O)N[C@@H](CCCNC(=N)N)C(=O)N[C@H](C(=O)N1CCC[C@H]1C(=O)N1CCC[C@H]1C(=O)O)[C@@H](C)O)[C@@H](C)O)C(C)C [MBP(88-102), reference compound] ({Dnp-Ahx}-VVHFFKNIVTPRTPP-OH) | 92% | –
2 | CC[C@H](C)[C@H](NC(=O)[C@H](CO)NC(=O)[C@@H](NC(=O)[C@@H]1CCCN1C(=O)[C@H](CO)NC(=O)[C@H](Cc1ccc(O)cc1)NC(=O)[C@H](CCSC)NC(=O)[C@H](CCCNC(=N)N)NC(=O)[C@@H](NC(=O)[C@@H](NC(=O)[C@H](CCCCN)NC(=O)[C@H](CC(N)=O)NC(=O)[C@H](CC(C)C)NC(=O)CCCCCNc1ccc([N+](=O)[O-])cc1[N+](=O)[O-])[C@@H](C)CC)C(C)C)C(C)C)C(=O)O [p24 (138-150)/Val] ({Dnp-Ahx}-LNKIVRMYSPVSI-OH; C-terminus assumed) | – | 3 µM
3 | CC[C@H](C)[C@H](NC(=O)[C@H](CCC(N)=O)NC(=O)[C@H](CCC(=O)O)NC(=O)CCCCCNc1ccc([N+](=O)[O-])cc1[N+](=O)[O-])C(=O)NCC(=O)N[C@@H](Cc1c[nH]c2ccccc12)C(=O)N[C@@H](CCSC)C(=O)N[C@H](C(=O)N[C@@H](CC(N)=O)C(=O)N[C@@H](CC(N)=O)C(=O)N1CCC[C@H]1C(=O)N1CCC[C@H]1C(=O)N[C@H](C(=O)N1CCC[C@H]1C(=O)N[C@H](C(=O)NCC(=O)O)C(C)C)[C@@H](C)CC)[C@@H](C)O [p24 (113-127)] ({Dnp-Ahx}-EQIGWMTNNPPIPVG-OH; C-terminus assumed) | – | 5 µM
